Results taken from article PMC8455547.
Results are given in words; binding and its absence hold for the method and conditions named. In cells and extracts the contact can be indirect. Binding can be weak; no strength is given. For some of these results: Sequences can lack the tags named with a protein.

B1: GFP–Id2 (protein, UniProt Q02363 1-134)
chain: MKAFSPVRSVRKNSLSDHSLGISRSKTPVDDPMSLLYNMNDCYSKLKELVPSIPQNKKVSKMEILQHVIDYILDLQIALDSHPTIVSLHHQRPGQNQASRTPLTTLNTDISILSLQASEFPSELMSNDSKALCG
B2: Flag–Sirt2 (enzyme, UniProt Q8IXJ6 1-389)
chain: MAEPDPSHPLETQAGKVQEAQDSDSDSEGGAAGGEADMDFLRNLFSQTLSLGSQKERLLDELTLEGVARYMQSERCRRVICLVGAGISTSAGIPDFRSPSTGLYDNLEKYHLPYPEAIFEISYFKKHPEPFFALAKELYPGQFKPTICHYFMRLLKDKGLLLRCYTQNIDTLERIAGLEQEDLVEAHGTFYTSHCVSASCRHEYPLSWMKEKIFSEVTPKCEDCQSLVKPDIVFFGESLPARFFSCMQSDFLKVDLLLVMGTSLQVQPFASLISKAPLSTPRLLINKEKAGQSDPFLGMIMGLGGGMDFDSKKAYRDVAWLGECDQGCLALAELLGWKKELEDLVRREHASIDAQSGAGVPNPSTSASPKKSPPPAKDEARTTEREKPQ

Tests used:
[1] = biological target: T1, Id2 (endogenous, HEK293T) (human (endogenous in HEK293T)) (UniProt Q02363); assay: co-IP; lysates of HEK293T cells transfected with HA–Akt WT or CA-Akt; endogenous proteins immunoprecipitated and immunoblotted as indicated
T1 sequence: B1 chain

[2] = biological target: T2, Purified GST–Id2 (UniProt Q02363); assay: pull-down; purified GST–Id2 reacted with PC12 cell lysate (during PC12 cell differentiation); immunoblotting; only the target purified
T2 sequence: B1 chain

[3] = biological target: GST–α-tubulin intermediate domain; assay: pull-down; lysates of co-transfected cells (HEK293T where named) mixed with glutathione–sepharose beads, 3 h at 4 °C; 50 mM Tris-Cl pH 7.4, 150 mM NaCl, 1 mM EDTA, 0.5% Triton X-100; immunoblotting; in some panels with HA–Akt WT or CA Akt, or Akt inhibitor VIII (1 μM, 6 h)

Molecule | binding [3] | further results
α-tubulin (endogenous, HEK293T) (human (endogenous in HEK293T)) | – | binding [1]: binds
β-tubulin (endogenous, PC12 cells) (rat (endogenous in PC12)) | – | binding [2]: binds
B1 | binds | –
B2 | binds | –
